Assay results: PMC7712654
These are yes or no findings as the source states them, for the method shown.

What follows are substances tested against T1, β-CT (yeast two-hybrid) (Arabidopsis thaliana) (UniProt P56765) (assay: two-hybrid; oriented assays: CTI coiled-coil domains in pGADT7, α-CT in pGBKT7, strain AH109, SD-LWH with 1 mM 3-amino-1,2,4-triazole, 30 °C).
T1 sequence: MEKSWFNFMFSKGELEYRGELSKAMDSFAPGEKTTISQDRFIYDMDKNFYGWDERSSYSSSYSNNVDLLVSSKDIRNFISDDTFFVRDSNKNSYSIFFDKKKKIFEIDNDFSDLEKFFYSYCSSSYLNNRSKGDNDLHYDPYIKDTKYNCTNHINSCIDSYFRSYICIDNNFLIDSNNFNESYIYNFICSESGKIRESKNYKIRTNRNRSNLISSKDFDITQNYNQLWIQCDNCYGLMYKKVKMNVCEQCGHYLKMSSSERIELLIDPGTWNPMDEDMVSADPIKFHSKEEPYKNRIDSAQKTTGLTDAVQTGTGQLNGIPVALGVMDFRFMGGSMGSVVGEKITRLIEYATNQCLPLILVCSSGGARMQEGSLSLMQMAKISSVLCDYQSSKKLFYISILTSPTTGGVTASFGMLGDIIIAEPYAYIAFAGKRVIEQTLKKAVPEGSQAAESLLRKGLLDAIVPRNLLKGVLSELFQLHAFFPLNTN

binding, no binding:
coiled-coil domain of CTI2 (targeted yeast two-hybrid) (Arabidopsis thaliana) (domain or fragment)
coiled-coil domain of CTI3 (targeted yeast two-hybrid) (Arabidopsis thaliana) (domain or fragment)
coiled-coil-containing C-terminus of CTI1 (targeted yeast two-hybrid) (Arabidopsis thaliana) (domain or fragment)
